Measurements published in the supplement of paper PMC7666118.
This is one part of the list.

By UniProt entry, the sequences of proteins in these tests, tags left out. Where a name states a change or a piece, a line headed by the entry shows the natural chain unless it says otherwise.
UniProt Q9H0R3: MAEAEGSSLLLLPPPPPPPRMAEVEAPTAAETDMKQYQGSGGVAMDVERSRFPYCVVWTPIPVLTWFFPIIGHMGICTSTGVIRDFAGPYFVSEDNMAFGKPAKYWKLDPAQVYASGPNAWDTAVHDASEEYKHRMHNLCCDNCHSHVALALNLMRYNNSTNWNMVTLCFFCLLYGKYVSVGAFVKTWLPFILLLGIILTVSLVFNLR
UniProt Q9Y584: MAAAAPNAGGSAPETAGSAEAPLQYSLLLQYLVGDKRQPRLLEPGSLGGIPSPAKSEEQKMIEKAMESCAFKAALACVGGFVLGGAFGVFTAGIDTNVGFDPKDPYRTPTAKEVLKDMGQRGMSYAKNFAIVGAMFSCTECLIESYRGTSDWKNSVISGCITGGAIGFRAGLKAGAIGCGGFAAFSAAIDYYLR
UniProt Q969Z0: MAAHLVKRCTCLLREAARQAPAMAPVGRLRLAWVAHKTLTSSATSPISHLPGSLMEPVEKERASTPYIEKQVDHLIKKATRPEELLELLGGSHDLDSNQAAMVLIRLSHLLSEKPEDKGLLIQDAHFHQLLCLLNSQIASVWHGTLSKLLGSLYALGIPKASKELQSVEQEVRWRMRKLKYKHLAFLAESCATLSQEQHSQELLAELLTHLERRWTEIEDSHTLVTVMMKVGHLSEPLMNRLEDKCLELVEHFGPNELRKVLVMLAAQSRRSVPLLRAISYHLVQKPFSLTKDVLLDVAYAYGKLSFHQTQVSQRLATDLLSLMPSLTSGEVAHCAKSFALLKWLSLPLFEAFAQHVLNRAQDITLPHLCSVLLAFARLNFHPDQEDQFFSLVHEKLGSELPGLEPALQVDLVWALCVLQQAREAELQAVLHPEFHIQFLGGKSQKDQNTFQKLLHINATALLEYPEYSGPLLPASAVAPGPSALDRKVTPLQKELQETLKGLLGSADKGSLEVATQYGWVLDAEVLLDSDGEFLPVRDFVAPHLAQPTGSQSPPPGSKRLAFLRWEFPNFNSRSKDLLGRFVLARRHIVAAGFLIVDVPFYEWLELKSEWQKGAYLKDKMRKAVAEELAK
UniProt P20226, whole entry: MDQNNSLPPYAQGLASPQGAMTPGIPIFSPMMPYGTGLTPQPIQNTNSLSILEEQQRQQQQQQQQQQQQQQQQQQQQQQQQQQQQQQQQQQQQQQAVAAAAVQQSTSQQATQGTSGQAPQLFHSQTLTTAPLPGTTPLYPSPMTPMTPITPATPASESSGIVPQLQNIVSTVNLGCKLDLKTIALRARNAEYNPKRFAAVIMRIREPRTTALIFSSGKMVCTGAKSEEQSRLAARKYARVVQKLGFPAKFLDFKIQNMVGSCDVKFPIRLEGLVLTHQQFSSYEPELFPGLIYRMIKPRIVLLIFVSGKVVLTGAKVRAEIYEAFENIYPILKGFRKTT
UniProt Q9Y6I9: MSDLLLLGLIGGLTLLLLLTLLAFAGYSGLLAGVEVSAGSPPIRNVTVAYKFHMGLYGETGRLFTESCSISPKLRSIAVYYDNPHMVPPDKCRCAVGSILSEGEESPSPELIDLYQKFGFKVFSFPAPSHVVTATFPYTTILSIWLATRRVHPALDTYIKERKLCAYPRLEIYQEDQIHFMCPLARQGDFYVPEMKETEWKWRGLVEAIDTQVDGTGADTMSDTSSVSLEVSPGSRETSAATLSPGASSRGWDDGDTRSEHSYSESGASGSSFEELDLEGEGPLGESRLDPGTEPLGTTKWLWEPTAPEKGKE
UniProt Q9P0N9: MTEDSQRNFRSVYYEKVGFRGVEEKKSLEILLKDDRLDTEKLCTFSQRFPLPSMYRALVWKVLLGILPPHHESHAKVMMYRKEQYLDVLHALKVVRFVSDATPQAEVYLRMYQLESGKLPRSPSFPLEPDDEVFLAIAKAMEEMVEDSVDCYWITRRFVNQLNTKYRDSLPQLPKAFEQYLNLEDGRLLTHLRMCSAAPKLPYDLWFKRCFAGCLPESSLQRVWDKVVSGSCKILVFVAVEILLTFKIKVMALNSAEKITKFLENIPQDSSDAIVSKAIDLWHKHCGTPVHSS
UniProt Q9BZK7: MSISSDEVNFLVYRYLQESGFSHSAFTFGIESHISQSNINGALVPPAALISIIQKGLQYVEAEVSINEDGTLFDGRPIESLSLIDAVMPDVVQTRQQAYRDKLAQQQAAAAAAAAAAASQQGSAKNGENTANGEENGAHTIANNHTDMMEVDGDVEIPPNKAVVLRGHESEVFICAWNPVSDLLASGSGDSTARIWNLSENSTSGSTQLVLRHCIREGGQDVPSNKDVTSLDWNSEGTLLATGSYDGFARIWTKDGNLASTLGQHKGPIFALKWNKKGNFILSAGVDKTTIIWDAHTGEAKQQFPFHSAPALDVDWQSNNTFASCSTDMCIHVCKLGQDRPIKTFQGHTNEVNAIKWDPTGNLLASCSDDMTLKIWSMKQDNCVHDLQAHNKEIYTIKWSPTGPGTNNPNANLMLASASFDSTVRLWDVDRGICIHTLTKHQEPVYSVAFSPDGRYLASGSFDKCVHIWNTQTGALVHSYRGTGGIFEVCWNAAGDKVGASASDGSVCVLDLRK
UniProt Q9NYB0: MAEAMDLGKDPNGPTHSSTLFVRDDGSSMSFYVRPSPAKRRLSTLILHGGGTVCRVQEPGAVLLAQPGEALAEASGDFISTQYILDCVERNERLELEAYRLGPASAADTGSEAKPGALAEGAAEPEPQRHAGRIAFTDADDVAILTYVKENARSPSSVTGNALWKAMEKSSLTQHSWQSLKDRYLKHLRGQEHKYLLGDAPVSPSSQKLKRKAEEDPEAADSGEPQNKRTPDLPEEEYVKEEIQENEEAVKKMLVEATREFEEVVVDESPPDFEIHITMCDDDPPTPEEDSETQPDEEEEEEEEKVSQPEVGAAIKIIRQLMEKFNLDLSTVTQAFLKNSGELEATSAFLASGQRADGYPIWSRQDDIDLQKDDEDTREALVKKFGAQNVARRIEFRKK
UniProt Q9P0S9: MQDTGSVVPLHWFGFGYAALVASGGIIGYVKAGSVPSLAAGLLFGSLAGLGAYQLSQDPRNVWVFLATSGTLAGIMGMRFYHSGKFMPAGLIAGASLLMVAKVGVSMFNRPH
UniProt Q96K49: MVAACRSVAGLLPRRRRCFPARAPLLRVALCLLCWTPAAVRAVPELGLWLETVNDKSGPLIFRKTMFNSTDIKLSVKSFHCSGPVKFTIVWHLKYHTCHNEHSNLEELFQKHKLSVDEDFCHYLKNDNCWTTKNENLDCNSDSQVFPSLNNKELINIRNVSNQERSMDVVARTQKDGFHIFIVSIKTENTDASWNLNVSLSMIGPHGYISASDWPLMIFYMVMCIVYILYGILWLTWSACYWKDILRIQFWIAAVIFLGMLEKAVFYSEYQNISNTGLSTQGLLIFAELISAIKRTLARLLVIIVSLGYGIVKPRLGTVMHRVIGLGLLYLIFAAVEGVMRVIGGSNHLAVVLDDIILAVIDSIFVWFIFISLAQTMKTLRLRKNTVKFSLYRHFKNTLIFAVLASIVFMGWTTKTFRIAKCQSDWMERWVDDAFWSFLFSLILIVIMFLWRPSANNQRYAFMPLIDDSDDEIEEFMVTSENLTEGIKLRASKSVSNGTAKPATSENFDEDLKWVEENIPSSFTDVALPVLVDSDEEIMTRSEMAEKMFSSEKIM
UniProt Q15388, whole entry: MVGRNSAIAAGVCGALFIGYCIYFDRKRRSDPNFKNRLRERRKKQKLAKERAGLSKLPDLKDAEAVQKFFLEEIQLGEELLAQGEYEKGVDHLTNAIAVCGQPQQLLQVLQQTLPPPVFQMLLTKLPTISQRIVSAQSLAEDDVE
UniProt Q8IY95: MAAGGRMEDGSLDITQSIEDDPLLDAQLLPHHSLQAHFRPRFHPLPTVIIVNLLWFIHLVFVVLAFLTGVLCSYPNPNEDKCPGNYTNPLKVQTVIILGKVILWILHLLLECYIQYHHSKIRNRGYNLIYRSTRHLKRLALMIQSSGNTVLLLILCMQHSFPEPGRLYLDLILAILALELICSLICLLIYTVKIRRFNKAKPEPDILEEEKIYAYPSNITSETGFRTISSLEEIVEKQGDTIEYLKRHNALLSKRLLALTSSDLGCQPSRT
UniProt Q02880: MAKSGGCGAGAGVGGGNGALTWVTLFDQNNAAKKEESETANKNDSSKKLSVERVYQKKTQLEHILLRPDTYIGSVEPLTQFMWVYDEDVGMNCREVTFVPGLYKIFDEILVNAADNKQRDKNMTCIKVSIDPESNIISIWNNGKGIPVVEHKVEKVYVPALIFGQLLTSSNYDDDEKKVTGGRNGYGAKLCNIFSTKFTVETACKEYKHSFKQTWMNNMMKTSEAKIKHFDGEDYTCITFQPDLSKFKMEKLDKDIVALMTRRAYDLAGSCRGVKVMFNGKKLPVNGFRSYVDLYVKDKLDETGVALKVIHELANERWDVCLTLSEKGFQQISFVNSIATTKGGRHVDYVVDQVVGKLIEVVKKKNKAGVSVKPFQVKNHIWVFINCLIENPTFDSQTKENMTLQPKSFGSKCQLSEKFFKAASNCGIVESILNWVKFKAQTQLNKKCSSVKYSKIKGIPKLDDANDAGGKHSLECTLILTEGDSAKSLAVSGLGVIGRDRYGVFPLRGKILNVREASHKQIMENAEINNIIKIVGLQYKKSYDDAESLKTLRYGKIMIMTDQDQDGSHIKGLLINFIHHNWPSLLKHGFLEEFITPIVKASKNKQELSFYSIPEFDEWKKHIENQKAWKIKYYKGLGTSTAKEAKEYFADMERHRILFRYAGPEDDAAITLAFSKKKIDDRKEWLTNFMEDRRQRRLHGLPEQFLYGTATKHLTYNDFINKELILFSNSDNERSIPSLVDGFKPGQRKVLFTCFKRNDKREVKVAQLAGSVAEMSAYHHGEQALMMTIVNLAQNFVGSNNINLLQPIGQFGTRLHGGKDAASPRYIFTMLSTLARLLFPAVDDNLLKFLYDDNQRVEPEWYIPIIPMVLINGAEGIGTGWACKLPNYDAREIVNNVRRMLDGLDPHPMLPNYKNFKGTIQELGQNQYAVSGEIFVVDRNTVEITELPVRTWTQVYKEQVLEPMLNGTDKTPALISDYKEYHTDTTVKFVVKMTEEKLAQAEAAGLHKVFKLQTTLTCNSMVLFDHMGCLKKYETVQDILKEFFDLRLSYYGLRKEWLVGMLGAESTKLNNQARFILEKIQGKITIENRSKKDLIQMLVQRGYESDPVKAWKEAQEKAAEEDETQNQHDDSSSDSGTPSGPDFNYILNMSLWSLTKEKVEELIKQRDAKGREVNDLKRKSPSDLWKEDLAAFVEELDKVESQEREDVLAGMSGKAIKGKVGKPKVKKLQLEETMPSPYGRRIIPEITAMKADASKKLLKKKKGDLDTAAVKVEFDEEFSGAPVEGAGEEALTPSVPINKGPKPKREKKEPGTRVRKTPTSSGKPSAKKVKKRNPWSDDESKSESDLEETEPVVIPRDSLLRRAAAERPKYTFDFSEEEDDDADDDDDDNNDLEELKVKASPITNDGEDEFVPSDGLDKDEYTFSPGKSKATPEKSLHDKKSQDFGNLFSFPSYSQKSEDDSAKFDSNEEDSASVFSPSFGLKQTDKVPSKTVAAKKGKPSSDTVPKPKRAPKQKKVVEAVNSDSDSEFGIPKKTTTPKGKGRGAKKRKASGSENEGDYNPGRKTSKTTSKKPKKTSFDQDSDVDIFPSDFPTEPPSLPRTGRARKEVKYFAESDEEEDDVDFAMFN
UniProt P51580: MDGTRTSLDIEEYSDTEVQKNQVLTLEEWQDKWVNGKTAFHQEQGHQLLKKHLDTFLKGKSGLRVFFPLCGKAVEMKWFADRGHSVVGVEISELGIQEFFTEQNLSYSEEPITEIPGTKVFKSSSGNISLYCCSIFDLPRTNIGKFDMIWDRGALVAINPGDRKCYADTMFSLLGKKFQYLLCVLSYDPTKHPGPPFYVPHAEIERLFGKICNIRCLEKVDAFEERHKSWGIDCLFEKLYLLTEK
UniProt Q99081: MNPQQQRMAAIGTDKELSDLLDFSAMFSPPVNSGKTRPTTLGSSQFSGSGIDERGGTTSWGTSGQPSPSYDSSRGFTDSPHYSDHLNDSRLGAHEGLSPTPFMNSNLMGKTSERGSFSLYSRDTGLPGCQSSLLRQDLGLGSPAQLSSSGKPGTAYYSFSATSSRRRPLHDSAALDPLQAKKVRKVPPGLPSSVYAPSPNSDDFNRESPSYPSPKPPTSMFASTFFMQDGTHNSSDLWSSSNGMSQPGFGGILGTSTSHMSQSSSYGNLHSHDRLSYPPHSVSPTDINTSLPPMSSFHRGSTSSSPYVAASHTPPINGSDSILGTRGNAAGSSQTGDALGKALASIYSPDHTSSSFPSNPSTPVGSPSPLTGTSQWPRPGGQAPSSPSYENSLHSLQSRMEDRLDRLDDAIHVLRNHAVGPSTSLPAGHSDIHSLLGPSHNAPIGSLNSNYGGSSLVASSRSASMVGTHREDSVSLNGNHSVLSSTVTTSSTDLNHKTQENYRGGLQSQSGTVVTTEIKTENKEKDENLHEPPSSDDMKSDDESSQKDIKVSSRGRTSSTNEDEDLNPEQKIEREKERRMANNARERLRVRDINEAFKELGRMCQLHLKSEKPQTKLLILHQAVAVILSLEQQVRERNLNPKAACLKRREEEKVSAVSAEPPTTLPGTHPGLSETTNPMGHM

Compound: COc1ccc(Cn2ccc3ccc(C(=O)NO)cc32)cc1
Assay: dose-dependent thermal stabilisation call (2D-TPP, DLPTP, 10% FDR) (binary (1 = stabilised)); higher = stabilised by the compound
Settings: system: HL-60 intact cells; concentration range 0.04-10 µM

| Target | dose-dependent thermal stabilisation call |
| --- | --- |
| TAOK1 (UniProt Q7L7X3) | inactive: 0 |
| TMEM102 (UniProt Q8N9M5) | inactive: 0 |
| TDP1 (UniProt Q9NUW8) | inactive: 0 |
| TMEM222 (UniProt Q9H0R3) | inactive: 0 |
| TGFB1 (UniProt P01137) | inactive: 0 |
| TIFA (UniProt Q96CG3) | inactive: 0 |
| TP53I3 (UniProt Q53FA7) | inactive: 0 |
| TOE1 (UniProt Q96GM8) | inactive: 0 |
| TFAM (UniProt Q00059) | inactive: 0 |
| TPP1 (UniProt O14773) | inactive: 0 |
| THEM4 (UniProt Q5T1C6) | active: 1 |
| TIMM22 (UniProt Q9Y584) | inactive: 0 |
| TOR1AIP2 | inactive: 0 |
| TMEM161B (UniProt Q8NDZ6) | inactive: 0 |
| TNFRSF8 (UniProt P28908) | inactive: 0 |
| TMEM57 (UniProt Q8N5G2) | inactive: 0 |
| TMEM48 (UniProt Q9BTX1) | inactive: 0 |
| THOC6 (UniProt Q86W42) | inactive: 0 |
| TMEM206 (UniProt Q9H813) | inactive: 0 |
| TIMM9 (UniProt Q9Y5J7) | inactive: 0 |
| TBRG4 (UniProt Q969Z0) | inactive: 0 |
| TMEM30A (UniProt Q9NV96) | inactive: 0 |
| TBC1D20 (UniProt Q96BZ9) | inactive: 0 |

| Target | dose-dependent thermal stabilisation call |
| --- | --- |
| THADA (UniProt Q6YHU6) | inactive: 0 |
| TBP (UniProt P20226) | inactive: 0 |
| TEX264 (UniProt Q9Y6I9) | active: 1 |
| TNFRSF10A (UniProt O00220) | inactive: 0 |
| TOR3A (UniProt Q9H497) | inactive: 0 |
| TMEM199 (UniProt Q8N511) | inactive: 0 |
| TMTC4 (UniProt Q5T4D3) | inactive: 0 |
| TBC1D4 (UniProt O60343) | inactive: 0 |
| TBC1D7 (UniProt Q9P0N9) | inactive: 0 |
| TAF9 (UniProt Q16594) | inactive: 0 |
| TBCB (UniProt Q99426) | inactive: 0 |
| TCF20 (UniProt Q9UGU0) | inactive: 0 |
| TATDN2 (UniProt Q93075) | inactive: 0 |
| TMEM181 (UniProt Q9P2C4) | inactive: 0 |
| TMEM41A (UniProt Q96HV5) | inactive: 0 |
| TBL1XR1 (UniProt Q9BZK7) | inactive: 0 |
| TAPT1 (UniProt Q6NXT6) | inactive: 0 |
| THOC2 (UniProt Q8NI27) | inactive: 0 |
| TIMELESS (UniProt Q9UNS1) | inactive: 0 |
| TJAP1 (UniProt Q5JTD0) | inactive: 0 |
| TMEM63A (UniProt O94886) | inactive: 0 |
| TCEB1 (UniProt Q15369) | inactive: 0 |
| TFDP1 (UniProt Q14186) | inactive: 0 |

| Target | dose-dependent thermal stabilisation call |
| --- | --- |
| TMED2 (UniProt Q15363) | inactive: 0 |
| TCOF1 (UniProt Q13428) | inactive: 0 |
| TBL2 (UniProt Q9Y4P3) | inactive: 0 |
| TCEB3 (UniProt Q14241) | inactive: 0 |
| TMF1 (UniProt P82094) | inactive: 0 |
| TNFAIP2 (UniProt Q03169) | inactive: 0 |
| TMED3 (UniProt Q9Y3Q3) | inactive: 0 |
| TMEM134 (UniProt Q9H6X4) | inactive: 0 |
| TFCP2 (UniProt Q12800) | inactive: 0 |
| TMEM33 (UniProt P57088) | inactive: 0 |
| TBC1D22A (UniProt Q8WUA7) | inactive: 0 |
| TBCE (UniProt Q15813) | inactive: 0 |
| TERF2IP (UniProt Q9NYB0) | inactive: 0 |
| TIMM23B (UniProt Q5SRD1) | inactive: 0 |
| TPRG1L (UniProt Q5T0D9) | inactive: 0 |
| TPBG (UniProt Q13641) | inactive: 0 |
| TESC (UniProt Q96BS2) | inactive: 0 |
| TIMM23 (UniProt O14925) | inactive: 0 |
| TCEA2 (UniProt Q15560) | inactive: 0 |
| TAPBPL (UniProt Q9BX59) | inactive: 0 |
| TM2D3 (UniProt Q9BRN9) | inactive: 0 |
| TMEM159 (UniProt Q96B96) | inactive: 0 |
| TDRKH (UniProt Q9Y2W6) | inactive: 0 |

| Target | dose-dependent thermal stabilisation call |
| --- | --- |
| TPM4 (UniProt P67936) | inactive: 0 |
| TFRC (UniProt P02786) | inactive: 0 |
| TIPIN (UniProt Q9BVW5) | inactive: 0 |
| TCERG1 (UniProt O14776) | inactive: 0 |
| THG1L (UniProt Q9NWX6) | inactive: 0 |
| TMCO6 (UniProt Q96DC7) | inactive: 0 |
| TMEM43 (UniProt Q9BTV4) | inactive: 0 |
| TALDO1 (UniProt P37837) | inactive: 0 |
| TFB1M (UniProt Q8WVM0) | inactive: 0 |
| TFAP4 (UniProt Q01664) | inactive: 0 |
| TMEM14C (UniProt Q9P0S9) | inactive: 0 |
| TCP11L1 (UniProt Q9NUJ3) | inactive: 0 |
| TMEM77 (UniProt Q6UX65) | inactive: 0 |
| TMEM87B (UniProt Q96K49) | inactive: 0 |
| TOMM20 (UniProt Q15388) | inactive: 0 |
| TMC6 (UniProt Q7Z403) | inactive: 0 |
| TIAL1 (UniProt Q01085) | inactive: 0 |
| TBC1D10A (UniProt Q9BXI6) | inactive: 0 |
| THOP1 (UniProt P52888) | inactive: 0 |
| TNKS1BP1 (UniProt Q9C0C2) | inactive: 0 |
| TBC1D25 (UniProt Q3MII6) | inactive: 0 |
| TLN1 (UniProt Q9Y490) | inactive: 0 |
| TMLHE (UniProt Q9NVH6) | inactive: 0 |

| Target | dose-dependent thermal stabilisation call |
| --- | --- |
| TLE4 (UniProt Q04727) | inactive: 0 |
| TMEM192 (UniProt Q8IY95) | inactive: 0 |
| TMEM104 (UniProt Q8NE00) | inactive: 0 |
| TES (UniProt Q9UGI8) | inactive: 0 |
| TOP2B (UniProt Q02880) | inactive: 0 |
| TMEM56 (UniProt Q96MV1) | inactive: 0 |
| TOMM70A (UniProt O94826) | inactive: 0 |
| THTPA (UniProt Q9BU02) | inactive: 0 |
| TNFAIP8 (UniProt O95379) | inactive: 0 |
| TM9SF1 (UniProt O15321) | inactive: 0 |
| TMEM165 (UniProt Q9HC07) | inactive: 0 |
| TMEM161A (UniProt Q9NX61) | inactive: 0 |
| TMCO7 (UniProt Q9C0B7) | inactive: 0 |
| TMEM19 (UniProt Q96HH6) | active: 1 |
| TPMT (UniProt P51580) | active: 1 |
| TMEM9B (UniProt Q9NQ34) | inactive: 0 |
| TARS (UniProt P26639) | inactive: 0 |
| TAPBP (UniProt O15533) | inactive: 0 |
| TCF12 (UniProt Q99081) | inactive: 0 |
| TM9SF2 (UniProt Q99805) | inactive: 0 |
| TELO2 (UniProt Q9Y4R8) | inactive: 0 |

Copied from the list:
Value for TCF12 (UniProt Q99081) under dose-dependent thermal stabilisation call: inactive: 0
Value for TMEM9B (UniProt Q9NQ34) under dose-dependent thermal stabilisation call: inactive: 0
Value for THTPA (UniProt Q9BU02) under dose-dependent thermal stabilisation call: inactive: 0
Value for TMCO7 (UniProt Q9C0B7) under dose-dependent thermal stabilisation call: inactive: 0
